The values that follow come from PubChem BioAssay AID1487 (National Center for Advancing Translational Sciences (NCATS), 2009).

This is one part of the list. Shown are side measurements of this screen, not its main read-out; they come without a call. Compounds called inactive in the main read-out are mostly missing here. The note in brackets gives the kind of curve behind each potency; many fits are weak.

The nature of the assay: qHTS Assay for Modulators of Lamin A Splicing. Particulars: HeLa LMNA splicing GFP/RFP minigene ratio, 48 h. The text has this:
NCGC Assay Overview: Hutchinson-Gilford Progeria Syndrome (HGPS) is a pediatric premature aging disease caused by a spontaneous mutation in the lamin A/C (LMNA) gene. The mutation activates a cryptic splice site in the LMNA pre-mRNA which results in production of a pre-lamin A protein that cannot be processed properly. The mutant protein accumulates in the nucleus and negatively affects numerous cellular functions. Correction of the splicing defect in HGPS patient cells using a targeted oligonucleotide (exo11) leads to reversal of the cellular disease phenotypes. To identify small molecule modulators of aberrant LMNA splicing, a homogenous assay was constructed in HeLa cells that used a GFP containing minigene to report on correction of aberrant splicing in lamin A and a RFP (DsRed2) to report on cell viability, uniformity and nonspecific effects on the assay signal. This assay was adapted to laser-scanning microplate cytometry (Acumen, TTP Labtech) where miniaturization of the assay to a 1,536-well plate format was possible. References: Bowen, W. P.; Wylie, P. G. Application of Laser-Scanning Fluorescence Microplate Cytometry in High Content Screening. Assay Drug Dev Technol 2006;4:209-221. Scaffidi P, Misteli T. Reversal of the cellular phenotype in the premature aging disease Hutchinson-Gilford progeria syndrome. Nat.
NCGC Assay Protocol Summary: Reagents/Controls: Stable clones expressing DsRed2 and lamin A-EGFP were generated by Cell and Molecular Technologies in S3 HeLa cells. HeLa cells were prepared for the assay when they were 70-90% confluent. The cells were counted and resuspended in Opti-MEM I (no phenol red; Gibco), 2% FBS, 1% penicillin/ streptomycin (Gibco) at concentration of 120 cells/uL concentration. The suspension was passed through a Falcon basket filter with pore size 40um (Beckton Dickson). Control titrations: column […] 1536-well plate contained a sixteen point titration (1:2 dilutions) in duplicate of ancitabine (Sigma: A8598) beginning at 40 uM final concentration. Column 2 contained a sixteen point titration (1:2 dilutions) of cycloheximide beginning at 1.4 mM final concentration. Column 3 contained ancitabine at 40 uM and column 4 contained was the vehicle control (0.5% DMSO final concentration). Assay Steps: 5 uL of HeLa cells were plated in Aurora LoBase black clear bottom (cyclic-olefin polymer) 1536-well plates at a final density of 600 cells/well. Controls and library compounds were added with a 1536-well pin array using the Kalypsys pin-tool. The plates were then incubated for 48 hrs in a cell-culture incubator (37 °C; 5% CO2, 98% humidity). Following incubation the plates were read on the Acumen Explorer using the 488 nm laser. Data was collected on objects between 10 and 100 um in size. Cell objects were defined by a 15 um width x 10 um depth filter. The ratio of the total object intensity in PMT1 (500-530 nm emission; GFP) over PMT3 (575-640 nm emission; RFP) was calculated for analysis. Keywords: NIH Roadmap, MLSCN, MLI, MLSMR, qHTS, NCGC, lamin A, Progeria, RNA splicing.

Where [1] appears, read: measured here: GFP splicing reporter channel.
The mark [2] stands for this setting: measured here: RFP viability control channel.

The AC50 is the midpoint of the concentration-response curve, whichever way the signal moves. As for `O=C(Nc1cccc2ccccc12)c1ccc([N+](=O)[O-])s1`, the AC50 under setting [1] is 17.8 µM [falling, single point] and the AC50 under setting [2] was 35.5 µM [falling, single point].

Regarding `Cc1ccc(-c2noc(CN(C(=O)CCCCCN3C(=O)c4ccccc4C3=O)C(C)C)n2)cc1`, the AC50 is 12.6 µM [rising, partial curve] under setting [1] and 22.4 µM [rising, single point] under setting [2]. `Cc1ccc(S(=O)(=O)Nc2ccccc2CNc2ncc(Br)cc2Br)cc1`: the AC50 under setting [1] was 35.5 µM [rising, single point]. On the same count and under the same terms, then `CCOc1ccc(CNC(=O)CN2N=C(c3ccccc3)CCC2=O)cc1OC`, with 3.98 µM [rising, partial curve, poor fit]. For `Cc1cccc(N2CCN(CC(=O)Nc3nccs3)CC2)c1C`, the AC50 under setting [2] is 12.6 µM [rising, single point]. With `O=C(NC(NC(=S)Nc1ccccc1Cl)C(Cl)(Cl)Cl)c1cccc(Cl)c1` (stereo not given), the concentration at half-maximal activity (AC50) under setting [1] was 35.5 µM [falling, single point]. Regarding `O=[N+]([O-])c1ccc(NC(=S)N2CCN(c3ccccc3)CC2)cc1`, the concentration at half-maximal activity (AC50) under setting [2] was 31.6 µM [rising, single point]. Same read-out and setting: then `CCc1ccc(NC(=O)C2CCN(S(=O)(=O)c3cccc(-c4noc(C)n4)c3)CC2)cc1`, with 2.82 µM [falling, full curve, poor fit]. On to `Cc1ccc(Cn2c(CNC(=O)c3ccc(Cl)c([N+](=O)[O-])c3)nc3cccnc32)cc1`, for which the AC50 runs as follows: under setting [1], 3.98 µM [falling, full curve, poor fit]; under setting [2], 3.98 µM [falling, full curve, poor fit]. Take `CCCCOC(=O)C[N+](C)(C)CCOC1CC2CCC1(C)C2(C)C` (stereo not given): the half-maximal activity concentration (AC50) under setting [2] is 22.4 µM [rising, single point].

In the case of `CCOc1ccc(S(=O)(=O)Nc2cc(Cl)ccc2O)cc1`, the AC50 under setting [1] is 35.5 µM [falling, single point]. For the molecule `CCOc1ccc(C2C(C#N)=C(C)NC3=C2C(=O)c2ccccc23)cc1` (stereo not given), the half-maximal activity concentration (AC50) under setting [2] was 35.5 µM [rising, single point]. Turning to `O=C(Nc1nc(-c2ccco2)c(-c2ccco2)s1)C1CCC1`, the AC50 under setting [1] was 31.6 µM [rising, single point] and the AC50 under setting [2] is 12.6 µM [rising, partial curve, poor fit]. As to `CCN(CC)C(=O)NC1CCCCCCC1`, the AC50 under setting [1] was 0.1 µM [rising, full curve, poor fit]. In the case of `Cc1ccc2cc(CN(CCCO)S(=O)(=O)c3cccc4nsnc34)c(=O)[nH]c2c1C`, under setting [2], the AC50 was 35.5 µM [rising, single point].

As for `COc1ccc(-c2c(C)[nH]n3c(=O)c(Cc4ccccc4)c(C)nc23)cc1OC`, the concentration at half-maximal activity (AC50) under setting [2] was 35.5 µM [rising, single point].

As for `COc1cccc([C@@H]2Oc3ccc(Br)cc3C(=O)[C@H]2OC(=O)NC2CCCC2)c1`, the half-maximal activity concentration (AC50) under setting [2] was 25.1 µM [rising, partial curve]. With `CC(C)OC(=O)NCCOC(=O)Nc1ccc(Cl)c(Cl)c1`, the half-maximal activity concentration (AC50) runs as follows: under setting [1], 14.1 µM [rising, single point]; under setting [2], 35.5 µM [rising, single point]. For the molecule `CCc1cc(=O)[nH]c(SCc2nc(-c3cccc(Cl)c3)no2)n1`, the AC50 under setting [1] was 35.5 µM [falling, single point]. As for `O=C(COCc1cc(-c2cccs2)on1)NCc1ccc(F)cc1`, the AC50 under setting [2] was 0.0447 µM [falling, full curve, poor fit]. As to `O=C(Nc1ccc(Cl)cc1)c1ccc(-n2cnnc2)cc1`, the AC50 under setting [2] is 0.708 µM [falling, single point]. On to `Cc1ccc(Cl)cc1N1CCN(S(=O)(=O)c2ccc3c(c2)C(C(C)C)C(=O)N3)CC1` (stereo not given), for which the AC50 under setting [1] was 6.31 µM [rising, partial curve, poor fit]. Same read-out and setting: the same measure for `C=CCN1C2CCCC1CC(NC(=S)Nc1ccc(Cl)cc1)C2` (stereo not given): 0.178 µM [falling, full curve, poor fit]; for `CCOc1ccc(NC(=O)CS(=O)(=O)c2cn(CC)c3ccccc23)cc1`: 3.55 µM [falling, single point]. Regarding `CCn1c(=O)c(C(=O)Nc2nc3ccccc3[nH]2)c(O)c2ccccc21`, the AC50 under setting [2] is 4.47 µM [rising, single point]. Take `CC(=O)Nc1ccc(OCC(O)Cn2c(C(C)C)nc3ccccc32)cc1` (stereo not given): under setting [2], the AC50 was 0.0282 µM [falling, full curve, poor fit]. With `O=C(c1ccc(Cl)cc1)C1CCN(C(=O)NC2CCCCC2)CC1`, under setting [2], the AC50 is 14.1 µM [rising, partial curve, poor fit]. The same measure, in the same setting: the same measure for `COc1cc(C(=O)Oc2c(CN3CCOCC3)cc(Cl)c3cccnc23)cc(OC)c1OC`: 8.91 µM [rising, partial curve, poor fit]; for `CC1Oc2ccccc2N(CC(=O)NCC2CCCO2)C1=O` (stereo not given): 0.00447 µM [rising, full curve, poor fit]; for `COc1ccc(NS(=O)(=O)c2ccc3nc(COc4ccc(Cl)c(C)c4)[nH]c3c2)cc1`: 35.5 µM [rising, single point]. On the same count and under the same terms, the same measure for `N#CC(c1ccc(Cl)cc1)c1ccc2c(C(F)(F)F)cc(C(F)(F)F)nc2n1` (stereo not given): 3.16 µM [rising, single point].

With `COc1ccc(C2C3CCCCC3(O)CCN2C(=O)c2cccs2)cc1` (stereo not given), the AC50 under setting [1] is 0.316 µM [rising, full curve]. On to `Cc1c(Cl)cccc1-c1ccc(/C=N/n2cnnc2)o1`, for which the AC50 under setting [2] is 10 µM [falling, partial curve]. `COc1cccc(Nc2nc3ccccc3nc2NS(=O)(=O)c2cccs2)c1`: the half-maximal activity concentration (AC50) is, setting by setting: under setting [1], 17.8 µM [falling, partial curve]; under setting [2], 25.1 µM [falling, single point].

As to `CCc1cc(=O)oc2c(C)c(OCC(=O)N3CCCc4ccccc43)ccc12`, the AC50 under setting [2] was 35.5 µM [rising, single point]. As to `COc1cccc(CNC(=O)c2cc3c(=O)n(Cc4cccnc4)ccc3nc2C)c1`, the AC50 under setting [2] was 35.5 µM [rising, single point]. Turning to `CCc1ccccc1Nc1ncnc2c1cnn2-c1ccc(C)cc1C`, the AC50 under setting [1] was 2.82 µM [falling, partial curve]. In the case of `COc1ccc(C(=O)Nc2nnc(S(=O)(=O)N(C)c3ccc(C)cc3)s2)cc1`, the AC50 was 17.8 µM [rising, partial curve] under setting [1] and 15.8 µM [rising, partial curve] under setting [2].
